Data taken from PubChem BioAssay AID651550 (National Center for Advancing Translational Sciences (NCATS), 2012).
The whole screen tested about 360,000 compounds, of which about 1,100 (0.31%) were called active. The inconclusive results got no clear call from the source; some entries with a clear call stand among them for comparison. Cut-off read from the data, not from the text of the source: active = activity change below about -80%; inconclusive = mostly about -51% to -80%; inactive = weaker than that.
% is set by controls: 0 for no effect and ±100 for the full control effect.

Each molecule was assayed against RAC-alpha serine/threonine-protein kinase (Homo sapiens) (UniProt P31749) (assay: HTS Assay for Inhibitors of Akt Phophorylation: Primary Screen). Details: Neuro2A IGF-stimulated pAkt S473 HTRF, 20 min; at 50 µM, active compounds read low.
Description: The serine/threonine protein kinase Akt (protein kinase B) regulates various cellular processes, including cell survival, growth, proliferation, migration and differentiation. It has been well established that Akt is activated through two essential steps involving membrane translocation and phosphorylation. Cytosolic Akt is recruited to the plasma membrane via the interaction between the PH domain and membrane PIP3 produced by phosphoinositide-3 kinase (PI3K) upon growth factor receptor stimulation. The membrane-Akt interaction results in conformational changes of Akt, enabling its activation through phosphorylation at T308 in the kinase domain and at S473 in the C-terminal hydrophobic motif by PDK1 and mTOR-rictor complex (mTORC2), respectively. […] These findings indicate that S473 phosphorylation, as an important modulator of Akt activation, may be a valuable drug target for cell growth, survival, proliferation and differentiation. These inhibitors also may have significant therapeutic potential with fewer side effects, especially for the conditions involving hyperactive Akt signaling, such as cancer and Alzheimer's disease.
To this end, a miniaturized assay was developed to be screened against the Molecular Libraries Small Molecule Repository (MLSMR).
NIH Chemical Genomics Center [NCGC]
NIH Molecular Libraries Probe Centers Network [MLPCN]
Assay Submitter (PI): Hee-Yong Kim, National Institute on Alcohol Abuse and Alcoholism
3 uL of Neuro2A cell suspension in DMEM containing 0.5% FBS and […] antibiotics mix was plated in a white solid bottom tissue culture-treated 1536-well plate (Greiner Bio-One, Monroe, NC) at 4,500 cells per well and incubated overnight at 37 deg C. 23 nL/well of compound solutions in DMSO was added with Pintool transfer (Kalypsis, San Diego, CA) at single […] final concentration. Then, the cells were stimulated with 1.5 uL of IGF (6 nM final concentration) and incubated at 37 deg C for 20 min. The reaction was terminated by the addition of 1.5 uL blocking reagent mixed with lysis buffer (1:25 correspondingly) provided with HTRF(R) Phospho Akt (Ser473) kit (Cisbio US, Bedford, MA), with following incubation for 50 min at ambient temperature. The detection HTRF conjugates from the kit were prepared according to the protocol, pre-mixed 1:1 prior to dispensing, and 2 uL/well was added with BioRAPTR FRD dispenser (Beckman Coulter). The assay plates were incubated for 24 hours at ambient temperature, and the HTRF fluorescence was measured using Envision plate reader (PerkinElmer) with excitation at 330nm, emission at 615nm (Eu(3)-Cryptate donor signal) and 665nm (d2 acceptor signal). The ratio of […] was calculated for each well.
Cc1cc(Cl)ccc1NC(=O)CSc1nnc(-c2ccncc2)n1Cc1ccco1 was tested, and the activity change was inconclusive: -76.2%. COc1cc(/C=C2\SC(=S)N(Nc3ncc(C(F)(F)F)cc3Cl)C2=O)cc(OC)c1OC was tested, and the activity change was inconclusive: -70.3%. With CCOC(=O)c1cc(-c2ccc(F)cc2)n(CC(=O)NC(C)CC)c1C (stereo not drawn) the activity change was “inactive”. With NC(=O)c1cccn1Cc1ccccc1Cl the activity change was inconclusive: -70.8%. CCCC(NC(=O)CCc1c(C)c2cc3c4c(oc3c(C)c2oc1=O)CCCC4)C(=O)O (stereo not drawn) was tested, and the activity change was “inactive”. COc1ccc(C(=O)Nc2ccc(Cl)c(Cl)c2)c(OC)n1 was tested, and the activity change was active: -129%. In the case of Cc1nn(C)cc1/C=C/C(=O)c1ccccc1, the activity change is reported as inconclusive: -54.8%. For CN(C)CCN1C(=O)C(O)=C(C(=O)c2cc3ccccc3o2)C1c1cccc(Br)c1 (stereo not drawn), the activity change was inconclusive: -73.3%. For CCOC(=O)c1cnc2ccc(Br)cc2c1NCC(C)O (stereo not drawn), the activity change was inconclusive: -65.5%. In the case of O=S(=O)(c1ccc(N2CCC(c3ccc(Cl)cc3)=N2)cc1)N(CCO)CCO, the activity change is reported as inconclusive: -76.5%. In the case of COc1cc(NS(=O)(=O)c2ccc(NC(=O)COc3ccccc3Cl)cc2)nc(OC)n1, the activity change is reported as active: -125%. With COc1ccc(NS(=O)(=O)c2ccc(OCC(=O)N3CCCC3)cc2)cc1 the activity change was inconclusive: -55.1%. CCOc1ccccc1C1C(C#N)=C(N)SC(N)=C1C#N was tested, and the activity change was inconclusive: -55.1%. With CCOC(=O)C1C(=O)NCC1c1ccccc1 (stereo not drawn) the activity change was inconclusive: -67.5%. With c1ccc(Nc2nc(N3CCOCC3)nc(N3CCOCC3)n2)cc1 the activity change was inconclusive: -72.3%. For O=C(O)C1CSC2(c3ccc4c(c3)OCCO4)CCC(=O)N12 (stereo not drawn), the activity change was active: -115%. In the case of Cn1c(SCC(=O)NC2CCCCC2)nnc1-c1cc2cc(Cl)ccc2o1, the activity change is reported as inconclusive: -61%. In the case of CC(=O)Nc1ccc(SCC(=O)N(CCC#N)c2cc(C)cc(C)c2)cc1, the activity change is reported as active: -110%. With O=c1c2c(-c3ccco3)csc2nc(SCc2cn3cccnc3n2)n1-c1ccccc1 the activity change was inactive: -12.4%. For CCOC(=O)c1cc2sccc2n1CC(=O)Nc1ccc(OC)cc1, the activity change was inconclusive: -52.5%. CN(c1ccc(C(=O)Nc2cccnc2)cc1)S(C)(=O)=O was tested, and the activity change was inactive: -0.0646%. For CCc1cccc(C)c1NC(=O)CN1C(=O)NC(C)(CCC(C)C)C1=O (stereo not drawn), the activity change was “inactive”. Cc1ccc(Cn2ccc(NC(=O)c3cc(-c4ccc(F)cc4)on3)n2)cc1 was tested, and the activity change was inconclusive: -68.2%. With COc1ccc(CC(=O)Nc2c3c(nn2-c2ccccc2C)CS(=O)C3)cc1 (stereo not drawn) the activity change was inconclusive: -55.2%. With Cc1cccc2cc(C(c3nnnn3Cc3ccccc3)N3CCCc4ccccc43)c(=O)[nH]c12 (stereo not drawn) the activity change was inconclusive: -73.4%. For CNC(=O)c1ccsc1NC(=O)c1ccc2c(c1)CCCC2, the activity change was “inactive”. N#Cc1ccccc1OCC(=O)NC(N)=O was tested, and the activity change was active: -111%. In the case of Nc1ncnc2c1ncn2C1CCCC1, the activity change is reported as “inactive”. For Cc1c(CCC(=O)N[C@@H](C)C(=O)O)c(=O)oc2cc3occ(-c4ccccc4)c3cc12, the activity change was “inactive”. COc1ccc(C(=O)Nc2cccc(C(C)=O)c2)cc1OC was tested, and the activity change was inconclusive: -67.7%. For O=C(NCc1ccccc1)C1Cc2c(-c3ccc4c(c3)OCO4)ccnc2O1 (stereo not drawn), the activity change was “inactive”. For COCc1cc(C)nc(Nc2ccc(C)cc2C)c1C#N, the activity change was inconclusive: -51.1%. With Nc1ccc(-c2cnc[nH]2)cc1[N+](=O)[O-] the activity change was “inactive”. For COc1cc2c(cc1NC(=O)CSc1nnnn1-c1ccccc1)oc1ccccc12, the activity change was inconclusive: -65.4%. In the case of C=CCn1c(COc2cccc3ccc(C)nc23)nnc1SCC(=O)OC, the activity change is reported as “inactive”. CCCC12CN3CC(C)(CN(C1)C31CCCCC1)C2=O was tested, and the activity change was inactive: 3.55%. In the case of Cc1cc(C(=O)NNC(=S)NCC2CCCO2)cs1 (stereo not drawn), the activity change is reported as inconclusive: -58.6%. With Cc1cc(C)c2c(-n3cccc3)c(C(=O)O)sc2n1 the activity change was inconclusive: -64%. For C=CCNc1nc2c(c(=O)[nH]c(=O)n2C)n1CCCCC, the activity change was active: -114%. With O=C(Nc1ccc(F)cc1F)c1noc2c1CCC2 the activity change was inconclusive: -50.8%. CCOC(=O)N1CCN(Cc2nc(N)nc(Nc3ccc(OC)cc3)n2)CC1 was tested, and the activity change was inconclusive: -53.2%. With CN(C)c1ccc(-c2c(-c3ccc4c(c3)OCO4)noc2-c2ccsc2)cn1 the activity change was “inactive”. For Cc1ccc(-n2c(N)c(C#N)c(-c3ccc(Cl)cc3)c(C#N)c2=O)cc1, the activity change was inconclusive: -72.7%. Cc1ccc(O)c(C2=Nc3ccccc3N=C(c3ccco3)C2)c1 was tested, and the activity change was inconclusive: -75.1%. In the case of COc1ccccc1C(=O)Nc1ccc2c(c1)nc(CCNC(C)=O)n2C, the activity change is reported as inconclusive: -63.7%. In the case of COc1nc(-c2ccc(C)cc2)ccc1-c1noc(-c2cccnc2)n1, the activity change is reported as active: -105%. CC[N+](CC)(CCO)CCCN1C(=O)C2CC=C(Cl)CC2C1=O (stereo not drawn) was tested, and the activity change was inconclusive: -74.8%. C=CCc1cc(Cl)ccc1OCCCNC(C)C was tested, and the activity change was “inactive”. In the case of COc1ccc(-c2ccc(SCC(=O)N3CCOCC3)nn2)cc1, the activity change is reported as inconclusive: -53.4%. With C/C(=N\NC(=O)COc1ccccc1-c1ccccc1)c1ccccn1 the activity change was “inactive”. Cc1ccc(NC(=O)NC2C(NC(=O)Nc3ccc(C)cc3)N(C)C(=O)N2C)cc1 (stereo not drawn) was tested, and the activity change was inconclusive: -56.1%. In the case of CC1(C)Cc2cccc(OCC(=O)Nc3ccccc3F)c2O1, the activity change is reported as “inactive”. In the case of O=C(Nc1ccccc1C(=O)NCC1CCCO1)c1ccco1 (stereo not drawn), the activity change is reported as inconclusive: -71.9%. In the case of CCOC(=O)Cn1c(-c2ccccc2)nc2ccccc2c1=O, the activity change is reported as inconclusive: -62.1%. For COc1ccc(N2CC(O)=C(c3nc4ccccc4s3)C2=N)cc1, the activity change was inconclusive: -55.9%. CCOC(=O)C1=C(C)Nc2sc(C(=O)c3ccc(Br)cc3)c(N)c2C1c1ccc(C(=O)OC)cc1 (stereo not drawn) was tested, and the activity change was inconclusive: -56.1%. With CC(C)(C)c1ccc(O)c(O)c1 the activity change was “inactive”. In the case of Cc1nc(N2CCN(Cc3ccccc3)CC2)nc2c1C(=O)CC(C)C2 (stereo not drawn), the activity change is reported as active: -110%. O=C1CC(c2cccc(Br)c2)c2cc3c(cc2N1)CCC3 (stereo not drawn) was tested, and the activity change was inconclusive: -68.5%. In the case of Cc1c(C(=O)Nc2ccc3c(c2)OCO3)sc2nc(-c3ccccc3)cn12, the activity change is reported as inconclusive: -51.7%. CCOC(=O)c1cccc(NC(=O)CSc2nnc(COc3ccc(Cl)cc3)o2)c1 was tested, and the activity change was inconclusive: -53.5%. For Nc1ccc2c(c1)C(=O)C(=O)c1ccccc1-2, the activity change was inconclusive: -73.1%. With CCOC(=O)/C(C#N)=C\c1ccc(OCC(=O)Nc2ccc(C)cc2C)c(OC)c1 the activity change was inconclusive: -78.9%. CCCN(CCC)CCCNC(=O)CC(C(=O)N1CCc2ccccc21)n1ccnc1 (stereo not drawn) was tested, and the activity change was inconclusive: -53%. For C=CCNC(=O)c1ccccc1NC(=O)c1ccc(Cl)c(S(=O)(=O)Nc2ccccc2)c1, the activity change was active: -88.4%. With O=C(Cc1csc(Nc2nc(=S)[nH]c3ccccc23)n1)NCc1ccc(Cl)cc1 the activity change was inconclusive: -54.1%. In the case of Cc1ccc(CC2S/C(=N/c3ccccn3)NC2=O)cc1 (stereo not drawn), the activity change is reported as inconclusive: -78.4%. In the case of C/C(Cl)=C\Cn1c(O)c(N=NC(N)=S)c2ccccc21, the activity change is reported as “inactive”. For Cc1nnc(SCC(=O)NC(=O)NCc2ccco2)n1Cc1ccccc1, the activity change was inactive: 1.37%. With CN(C)/C=C(\C#N)C(=O)c1cccc(Oc2ccc(Br)cc2)c1 the activity change was active: -112%. CCOc1ccc(-c2nnc3ccc(SC)nn23)cc1 was tested, and the activity change was inconclusive: -72.1%. With COC(=O)c1sccc1NC(=O)c1cc(-c2ccc(C)cc2C)nc2ccccc12 the activity change was active: -117%. For Cc1onc(-c2ccccc2Cl)c1C(=O)N1CCN(c2ccccc2)CC1, the activity change was inconclusive: -74.3%. In the case of CSc1nc(-c2ccc(C)cc2)[nH]c1S(=O)(=O)c1ccccc1, the activity change is reported as active: -106%. CCOC(=O)C1=C(C)N(C2CCCCC2)C(=O)C1 was tested, and the activity change was active: -101%. In the case of COc1cccc(C2C(C(=O)c3cc4cccc(OC)c4o3)=C(O)C(=O)N2c2cc(C)on2)c1OC (stereo not drawn), the activity change is reported as inconclusive: -55.5%. In the case of CCCCN(CCCC)c1nc2ccccc2nc1C(C#N)C(=O)NCCCOC (stereo not drawn), the activity change is reported as inconclusive: -59.8%. For CC(C)Cc1ccc(CN2C(C(C)C)C(=O)N(Cc3cn(CCC4OCCO4)nn3)CCS2(=O)=O)cc1 (stereo not drawn), the activity change was “inactive”. O=C(c1cccc(F)c1)N1CCN(c2cccc(C(F)(F)F)c2)CC1 was tested, and the activity change was inconclusive: -77.2%. In the case of CN(c1ccc(C(=O)N2CCc3ccccc3C2)cc1)S(C)(=O)=O, the activity change is reported as active: -108%. With O=C(COC(=O)Cn1cnc2ccccc21)Nc1cc2c(cc1Cl)C(=O)c1ccccc1C2=O the activity change was “inactive”. Cc1cc(C(=O)CSc2nc3ccccc3c(=O)n2C)c(C)n1Cc1ccc2c(c1)OCO2 was tested, and the activity change was active: -109%. With Cc1ccc(C2=NC(C)(C)N=C2SCC(=O)Nc2ccc(Cl)cc2)cc1 the activity change was “inactive”. In the case of O=C(CSc1nc2ccc([N+](=O)[O-])cc2[nH]1)NCCc1ccccc1, the activity change is reported as inconclusive: -70.1%. CCCCNC(=O)CCc1c(C)nc2nc(-c3cc(OC)cc(OC)c3)nn2c1C was tested, and the activity change was inconclusive: -69.5%. In the case of COc1cccc(-n2nnc3c(=O)n(Cc4ccc(Br)cc4)cnc32)c1, the activity change is reported as inconclusive: -79.5%. With COc1ccc(-c2nnc(Nc3nc4c(OC)cccc4s3)o2)cc1 the activity change was inactive: -30.9%. CCC(c1nnnn1C1CCCC1)N(Cc1cccs1)Cc1cc2cccc(C)c2[nH]c1=O (stereo not drawn) was tested, and the activity change was active: -108%. For CCOC(=O)c1c(-c2ccc(-c3ccccc3)cc2)csc1NC(=O)CCN1CCOCC1, the activity change was “inactive”. Cc1cccc(OCCCC(=O)Nc2ccc(N3CCCCC3)cc2)c1C was tested, and the activity change was inconclusive: -64.1%. With O=C(Nc1cccc(NC(=O)c2ccc(Br)o2)n1)c1ccc(Br)o1 the activity change was inconclusive: -55.2%. COc1cc(NC(=O)c2ccc(-c3ccc(Br)cc3)o2)ccc1NC(=O)C(C)C was tested, and the activity change was inconclusive: -73.1%. With CCCCc1nc2ccccc2c(=O)n1NC(=O)c1c(O)c2cccc3c2n(c1=O)CC3 the activity change was inconclusive: -67.9%.
